Test results published in article PMC5385604.
These are yes or no findings as the source states them, for the method shown. In cells and extracts the contact can be indirect. A result given as binding can be weak or reduced; the word gives no strength. For part of these data: Tags and fused reporters may be left off the sequences shown. Each block holds one molecule with its values, some of them ahead of it.

Experiments:
[1] = biological target: T1, full-length myc-tagged Gpsm2^FL (UniProt Q8VDU0); test: co-IP; HEK293T transfected (polyethylenimine), harvested after 48 h; extracts solubilized with Triton-X-100 and protease inhibitors; lysates incubated overnight with protein A/G or A resin and anti-myc, anti-GFP or rabbit IgG; immunoblot
T1 sequence: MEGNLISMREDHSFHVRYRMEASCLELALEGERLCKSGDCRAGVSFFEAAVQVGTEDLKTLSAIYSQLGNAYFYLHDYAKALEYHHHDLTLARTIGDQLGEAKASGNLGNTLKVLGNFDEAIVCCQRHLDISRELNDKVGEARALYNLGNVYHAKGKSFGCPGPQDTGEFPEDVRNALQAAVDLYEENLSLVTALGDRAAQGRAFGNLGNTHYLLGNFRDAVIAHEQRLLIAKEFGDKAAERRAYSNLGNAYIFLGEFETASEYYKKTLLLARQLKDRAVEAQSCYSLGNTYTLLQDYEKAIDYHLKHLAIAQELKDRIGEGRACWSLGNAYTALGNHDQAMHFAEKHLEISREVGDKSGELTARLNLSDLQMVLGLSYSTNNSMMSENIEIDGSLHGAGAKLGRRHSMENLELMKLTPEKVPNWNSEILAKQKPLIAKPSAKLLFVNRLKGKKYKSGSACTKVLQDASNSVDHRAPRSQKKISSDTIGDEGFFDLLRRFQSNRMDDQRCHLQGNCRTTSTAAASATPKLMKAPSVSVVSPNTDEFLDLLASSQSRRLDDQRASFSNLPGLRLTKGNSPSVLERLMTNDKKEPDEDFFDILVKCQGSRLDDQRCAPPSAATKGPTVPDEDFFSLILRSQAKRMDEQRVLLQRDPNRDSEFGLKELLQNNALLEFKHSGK

[2] = biological target: green fluorescent protein (GFP)–whirlin; test: as above
[3] = biological target: Gpsm2 (endogenous, rat hippocampus) (rat (endogenous in hippocampus)); test: co-IP; endogenous; 10 hippocampi of P21 rats solubilized with 1% DOC and 1% Triton-X-100 in 50 mM Tris pH 8; pre-immune or Gpsm2 serum with protein A resin overnight; blot with anti-whirlin and anti-Gpsm2

binding [1]: binds
Molecule: untagged whirlin

binding [2]: binds
B1: full-length myc-tagged Gpsm2^FL (protein, UniProt Q8VDU0 1-679)
chain: T1 sequence

binding [3]: binds
B2: endogenous whirlin (rat hippocampus) (protein, UniProt Q810W9 1-920)
chain: MNAQLDGLSVSSSSTGSLGSAAAAAGGGGGAGLRLLSANVRQLHQALTALLSEPEREQFTHCLNAYHARRNVFDLVRTLRVLLDSPVKRRLLPMLRLVIPRSDQLLFDQYTAEGLYLPATTPYRQPAWAAPDGAGPGEVRLVSLRRAKAHEGLGFSIRGGSEHGVGIYVSLVEPGSLAEKEGLRVGDQILRVNDKSLARVTHAEAVKALKGSKKLVLSVYSAGRIPGGYVTNHIYTWVDPQGRSTSPPSSLPHGSTLRQHEDDRRSALHLLQSGDEKKVNLVLGDGRSLGLTIRGGAEYGLGIYITGVDPGSEAESSGLKVGDQILEVNGRSFLSILHDEAVKLLKSSRHLILTVKDVGRLPHARTTVDQTKWIASSRIGESITNSAGFPGDLTEEGTNKPGFYKGPAGSQVTLSSLGNQTRALLDDQARHLLTEQERATMMYYLDQYRGGTISVEALVMALFELLNTHAKFSLLSEVRGIISPQDLDRFDHLVLRREIESMKARQPPGPGVGDTYSMVSYSDTGSSTGSHGTSTTVSSARERLLWLIDLMENTLDLEGTCETTQGSTNALPDVSVDDVRSPSEDLPGIKPPPPPPPLAQGHDRLLGQTRKPVREDSAPLSSAAHSGIVFSAPRNRSPPPPPGIAPTPTPGPSSARDSPSSPIYASISHANPSSRKPLDTHLALVNQHPIGPFPRVQSPPHLKSPPAEAPGAGACLPPPSPSEHADAMGANQHFVLVEVHRPDSEPDVNEVRALPQTRTASTLSQLSDSGQTLSEDSGVDAGETEASTSGRGRQTANTKNKNGKELPQTERTTEGANKPPGLLEPTSTLIRVRKSAATLGIAIEGGANTRQPLPRIVTIQRGGSAHNCGQLKVGHVILEVNGQTLRGKEHREAARVIAEAFKTKERDYIDFLVTEFNVML
